From article PMC7246916, “14-3-3 Proteins and Other Candidates form Protein-Protein Interactions with the Cytosolic C-terminal End of SOS1 Affecting Its Transport Activity” (International Journal of Molecular Sciences, 2020)
These are yes or no findings as the source states them, for the method shown. Sequences can lack the tags named with a protein.

Molecular target: T1, native SOS1 peptide spots with the sequence …1138KIVFRNDL (Arabidopsis thaliana)
T1 sequence (peptide): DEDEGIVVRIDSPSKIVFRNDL
Assay: peptide or protein array; 15-mer synthetic peptides of SOS1 from amino acid 446, overlapping by 12, spotted on a cellulose membrane; incubated with recombinant 10xHis-14-3-3ω; anti-His antibody, HRP-coupled anti-mouse antibody, ECL; both purified

B1: recombinant (10xHis)-labelled At14-3-3ω (protein, UniProt Q01525 1-259)
chain: MASGREEFVYMAKLAEQAERYEEMVEFMEKVSAAVDGDELTVEERNLLSVAYKNVIGARRASWRIISSIEQKEESRGNDDHVTAIREYRSKIETELSGICDGILKLLDSRLIPAAASGDSKVFYLKMKGDYHRYLAEFKTGQERKDAAEHTLAAYKSAQDIANAELAPTHPIRLGLALNFSVFYYEILNSPDRACNLAKQAFDEAIAELDTLGEESYKDSTLIMQLLRDNLTLWTSDMQDDAADEIKEAAAPKPTEEQQ
binding: no binding
